# Data as given in patent publication US20110237498A1.
# Results are given in words; binding and its absence hold for the method and conditions named. Some entries that bind do so weakly or less than the wild type. Sequences can lack the tags named with a protein.
# T1: murine CD47 on CD47+/+ (WT) murine splenocytes (mouse) (UniProt Q61735)
# T1 sequence (looked up): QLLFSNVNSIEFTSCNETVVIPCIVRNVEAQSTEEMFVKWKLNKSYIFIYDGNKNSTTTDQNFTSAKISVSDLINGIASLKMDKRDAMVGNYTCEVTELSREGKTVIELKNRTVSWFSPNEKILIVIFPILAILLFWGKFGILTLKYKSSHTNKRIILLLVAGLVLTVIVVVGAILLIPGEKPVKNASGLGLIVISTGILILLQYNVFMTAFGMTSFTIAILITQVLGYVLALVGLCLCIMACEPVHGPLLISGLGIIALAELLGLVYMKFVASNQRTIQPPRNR
# Assays:
# [1] = target: T1, murine CD47 on CD47+/+ (WT) murine splenocytes (mouse); assay: flow cytometry on murine splenocytes
# [2] = target: T1, murine CD47 on CD47+/+ (WT) murine splenocytes (mouse); assay: flow cytometry on murine splenocytes, 5 µg/ml murine SIRPα-Fc
binder,measurement,setting,value
"murine SIRPα-Fc (Fc fusion, mouse, UniProt P97797 32-373, looked up, not shown: a dimerising Fc or GST) KELKVTQPEKSVSVAAGDSTVLNCTLTSLLPVGPIRWYRGVGPSRLLIYSFAGEYVPRIRNVSDTTKRNNMDFSIRISNVTPADAGIYYCVKFQKGSSEPDTEIQSGGGTEVYVLAKPSPPEVSGPADRGIPDQKVNFTCKSHGFSPRNITLKWFKDGQELHPLETTVNPSGKNVSYNISSTVRVVLNSMDVNSKVICEVAHITLDRSPLRGIANLSNFIRVSPTVKVTQQSPTSMNQVNLTCRAERFYPEDLQLIWLENGNVSRNDTPKNLTKNTDGTYNYTSLFLVNSSAHREDVVFTCQVKHDQQPAITRNHTVLGFAHSSDQGSMQTFPDNNATHNWN",binding,[1],binds
same,binding,[2],binds
